No constants are given. Whether binding was seen depends on the method and setting. Some binding calls cover weakened binding; strength is not graded here.
Target: His-KAT2A (497–662) (UniProt Q92830)
Assay: SEC; bacterially purified His-KAT2A (497–662) on HiPrep 16/60 Sephacryl S-300 High Resolution column; fractions of 3 ml from 18 to 120 ml immunoblotted; both purified

Protein sequences, listed by entry. Tags and fused reporters are not part of them. Residues count along the entry.
UniProt Q92830, residues 497-662: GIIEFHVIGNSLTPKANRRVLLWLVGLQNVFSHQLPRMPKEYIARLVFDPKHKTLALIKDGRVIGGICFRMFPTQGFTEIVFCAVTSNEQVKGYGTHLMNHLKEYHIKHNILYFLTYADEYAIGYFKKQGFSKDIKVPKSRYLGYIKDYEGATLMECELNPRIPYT

- binding: binds
Substance: His-KAT2A (497–662) (from UniProt Q92830 497-662) (domain or fragment)

Source: article PMC6079010
